Literature values as cited in patent publication US20210177955A1, “IMMUNOGENIC HETEROCLITIC PEPTIDES FROM CANCER-ASSOCIATED PROTEINS AND METHODS OF USE THEREOF” (priority 2017, published 2021).
Like-named read-outs stand apart in the source and are kept apart here.

Test system: CD8+ T lymphocyte response
Details: wild-type counterpart, cited from earlier work
[1] = HLA Allele A*02:01, Table 14, uterine cancer
[2] = HLA Allele A*02:01, Table 16, ovarian cancer
[3] = HLA Allele A*02:01, Table 22, head and neck cancer
[4] = HLA Allele A*24:02, Table 14, uterine cancer
[5] = HLA Allele A*24:02, Table 16, ovarian cancer
[6] = HLA Allele B*07:02, Table 14, uterine cancer
[7] = HLA Allele B*07:02, Table 16, ovarian cancer
[8] = HLA Allele B*07:02, Table 20, CRC
[9] = HLA Allele A*02:01, Table 18, LGG

Measured: Wild-Type Peptide Immunogenic?

TERT
Yes: [1] | [2] | [3]

KLHL7
Yes: [4] | [5] | HLA Allele A*24:02, Table 18, LGG

PRAME
Yes: [1] | [2] | [3]

RNF43
Yes: [6] | [7] | HLA Allele B*07:02, Table 18, LGG | [8]

SART3
Yes: [1] | [2] | [9]

CEACAM5^1
Yes: [1] | [2] | [3] | HLA Allele A*03:01, Table 14, uterine cancer | HLA Allele A*03:01, Table 16, ovarian cancer | HLA Allele A*03:01, Table 18, LGG | HLA Allele A*03:01, Table 20, CRC | HLA Allele A*03:01, Table 22, head and neck cancer | [4] | [5] | HLA Allele A*24:02, Table 20, CRC | HLA Allele A*24:02, Table 22, head and neck cancer | [6] | [7] | [8] | HLA Allele B*07:02, Table 22, head and neck cancer

hTERT
Yes: [9]
